Expression grades refer to the transcript from which the peptide derives; gene names, where given, were looked up from the sequence.

The series concerns source genes of the peptides. The series is described as follows: Target coverage of source genes based on TCGA Research Network expression data. Set-up: species or system human. To be noted: for Target coverage, over-expression category of source gene, TGCT (N = 156): Testicular germ cell tumors; for Target coverage, over-expression category of source gene, THYM (N = 120): Thymoma; for Target coverage, over-expression category of source gene, UCEC (N = 546): Uterine corpus endometrial carcinoma; for Target coverage, over-expression category of source gene, THCA (N = 513): Thyroid carcinoma; for Target coverage, over-expression category of source gene, SARC (N = 263): Sarcoma; for Target coverage, over-expression category of source gene, UCS (N = 57): Uterine carcinosarcoma; for Target coverage, over-expression category of source gene, STAD (N = 415): Stomach adenocarcinoma; for Target coverage, over-expression category of source gene, SARC: Sarcoma (N = 263); for Target coverage, over-expression category of source gene, SKCM: Skin cutaneous melanoma (N = 473); for Target coverage, over-expression category of source gene, STAD: Stomach adenocarcinoma (N = 415); for Target coverage, over-expression category of source gene, TGCT: Testicular germ cell tumors (N = 156); for Target coverage, over-expression category of source gene, THYM: Thymoma (N = 120); for Target coverage, over-expression category of source gene, UCS: Uterine carcinosarcoma (N = 57); for Target coverage, over-expression category of source gene, UCEC: Uterine corpus endometrial carcinoma (N = 546); for Target coverage, over-expression category of source gene, UVM: Uveal melanoma (N = 80).

The mark [1] stands for this setting: cutoff more than 2-fold above highest 75% percentile of normal organs.

As to “214: peptide found in CCNB2 (gene looked up) (KYLMELTLI; listed as Homo sapiens) [compound 214]”, where the note is “Skin cutaneous melanoma, cutoff more than 2-fold above highest 75% percentile of normal organs”, the “Target coverage, over-expression category of source gene, SKCM (N = 473)” value is reported as “C (>=5% of tumors above the cutoff, but <20%)”. For the same substance, under setting [1], the “Target coverage, over-expression category of source gene, TGCT (N = 156)” value is “A (>=50% of tumors above the cutoff)”; the “Target coverage, over-expression category of source gene, THYM (N = 120)” value is reported as “A (>=50% of tumors above the cutoff)”; the “Target coverage, over-expression category of source gene, UCEC (N = 546)” value is listed as “C (>=5% of tumors above the cutoff, but <20%)”.

As for “164: peptide found in IL4I1 (gene looked up) (HYVPATKVF; listed as Homo sapiens) [compound 164]”, under setting [1], the “Target coverage, over-expression category of source gene, TGCT (N = 156)” value is listed as “A (>=50% of tumors above the cutoff)”; the “Target coverage, over-expression category of source gene, THYM (N = 120)” value is on record as “C (>=5% of tumors above the cutoff, but <20%)”; the “Target coverage, over-expression category of source gene, THCA (N = 513)” value is given as “C (>=5% of tumors above the cutoff, but <20%)”; the “Target coverage, over-expression category of source gene, UCEC (N = 546)” value is listed as “A (>=50% of tumors above the cutoff)”.

With “251: peptide found in NCAPG (gene looked up) (VYTKALSSL; listed as Homo sapiens) [compound 251]”, under setting [1], the “Target coverage, over-expression category of source gene, SARC (N = 263)” value is recorded as “A (>=50% of tumors above the cutoff)”; the “Target coverage, over-expression category of source gene, TGCT (N = 156)” value was “A (>=50% of tumors above the cutoff)”; the “Target coverage, over-expression category of source gene, THYM (N = 120)” value is listed as “A (>=50% of tumors above the cutoff)”; the “Target coverage, over-expression category of source gene, UCS (N = 57)” value is “A (>=50% of tumors above the cutoff)”.

“340: peptide found in MOB1A (gene looked up) (SVAKTILKR; listed as Homo sapiens) [compound 340]”: the “Target coverage, over-expression category of source gene, STAD (N = 415)” value under setting [1] is “C (>=5% of tumors above the cutoff, but <20%)”.

With “377: peptide found in RPTOR (gene looked up) (QYTPHSHQF; listed as Homo sapiens) [compound 377]”, the “Target coverage, over-expression category of source gene, SARC” value is on record as “C (>=5% of tumors above the cutoff, but <20%)”.

Turning to “372: peptide found in NUP210 (gene looked up) (VYVIEPHSMEF; listed as Homo sapiens) [compound 372]”, the “Target coverage, over-expression category of source gene, SARC” value was “C (>=5% of tumors above the cutoff, but <20%)”; the “Target coverage, over-expression category of source gene, SKCM” value is “B (>=20% of tumors above the cutoff, but <50%)”; the “Target coverage, over-expression category of source gene, STAD” value was “B (>=20% of tumors above the cutoff, but <50%)”; the “Target coverage, over-expression category of source gene, TGCT” value is reported as “C (>=5% of tumors above the cutoff, but <20%)”. Moreover, the “Target coverage, over-expression category of source gene, THYM” value is given as “A (>=50% of tumors above the cutoff)”; the “Target coverage, over-expression category of source gene, UCS” value was “C (>=5% of tumors above the cutoff, but <20%)”; the “Target coverage, over-expression category of source gene, UCEC” value was “B (>=20% of tumors above the cutoff, but <50%)”. Further, under “Prostate adenocarcinoma (N = 498)”, the “Target coverage, over-expression category of source gene, PRAD” value is listed as “C (>=5% of tumors above the cutoff, but <20%)”.

As for “396: peptide found in GRIK3 (gene looked up) (YYHFIFTTL; listed as Homo sapiens) [compound 396]”, the “Target coverage, over-expression category of source gene, SARC” value was “C (>=5% of tumors above the cutoff, but <20%)”; the “Target coverage, over-expression category of source gene, SKCM” value is given as “C (>=5% of tumors above the cutoff, but <20%)”; the “Target coverage, over-expression category of source gene, UVM” value is “C (>=5% of tumors above the cutoff, but <20%)”.

As for “335: peptide found in NUP210 (gene looked up) (VLLAAGPSAA; listed as Homo sapiens) [compound 335]”, the “Target coverage, over-expression category of source gene, PRAD (N = 498)” value (Prostate adenocarcinoma, cutoff more than 2-fold above highest 75% percentile of normal organs) is “C (>=5% of tumors above the cutoff, but <20%)”. Under setting [1], the “Target coverage, over-expression category of source gene, SARC (N = 263)” value is on record as “C (>=5% of tumors above the cutoff, but <20%)”; the “Target coverage, over-expression category of source gene, TGCT (N = 156)” value is “C (>=5% of tumors above the cutoff, but <20%)”; the “Target coverage, over-expression category of source gene, THYM (N = 120)” value is on record as “A (>=50% of tumors above the cutoff)”; the “Target coverage, over-expression category of source gene, UCS (N = 57)” value was “C (>=5% of tumors above the cutoff, but <20%)”.

Take “369: peptide found in CDK1 (gene looked up) (VYTHEVVTL; listed as Homo sapiens) [compound 369]”: the “Target coverage, over-expression category of source gene, SARC” value is reported as “B (>=20% of tumors above the cutoff, but <50%)”; the “Target coverage, over-expression category of source gene, SKCM” value is reported as “C (>=5% of tumors above the cutoff, but <20%)”; the “Target coverage, over-expression category of source gene, STAD” value is listed as “B (>=20% of tumors above the cutoff, but <50%)”; the “Target coverage, over-expression category of source gene, TGCT” value is reported as “C (>=5% of tumors above the cutoff, but <20%)”. Besides, the “Target coverage, over-expression category of source gene, THYM” value was “B (>=20% of tumors above the cutoff, but <50%)”; the “Target coverage, over-expression category of source gene, UCS” value was “B (>=20% of tumors above the cutoff, but <50%)”; the “Target coverage, over-expression category of source gene, UCEC” value is listed as “B (>=20% of tumors above the cutoff, but <50%)”.

For the substance “400: peptide found in MMP1 (gene looked up) (KYLEKYYNL; listed as Homo sapiens) [compound 400]”, the “Target coverage, over-expression category of source gene, SARC” value was “C (>=5% of tumors above the cutoff, but <20%)”; the “Target coverage, over-expression category of source gene, SKCM” value is given as “C (>=5% of tumors above the cutoff, but <20%)”; the “Target coverage, over-expression category of source gene, STAD” value is “A (>=50% of tumors above the cutoff)”; the “Target coverage, over-expression category of source gene, UCS” value is “C (>=5% of tumors above the cutoff, but <20%)”. For the same substance, the “Target coverage, over-expression category of source gene, UCEC” value was “C (>=5% of tumors above the cutoff, but <20%)”.

Turning to “110: peptide found in FANCD2 (gene looked up) (SYPKIIEEF; listed as Homo sapiens) [compound 110]”, under setting [1], the “Target coverage, over-expression category of source gene, SARC (N = 263)” value is on record as “C (>=5% of tumors above the cutoff, but <20%)”; the “Target coverage, over-expression category of source gene, STAD (N = 415)” value was “C (>=5% of tumors above the cutoff, but <20%)”; the “Target coverage, over-expression category of source gene, TGCT (N = 156)” value is given as “A (>=50% of tumors above the cutoff)”.

For “391: peptide found in CDK1 (gene looked up) (LYQILQGIVF; listed as Homo sapiens) [compound 391]”, the “Target coverage, over-expression category of source gene, SARC” value is “B (>=20% of tumors above the cutoff, but <50%)”; the “Target coverage, over-expression category of source gene, SKCM” value was “C (>=5% of tumors above the cutoff, but <20%)”; the “Target coverage, over-expression category of source gene, STAD” value is listed as “B (>=20% of tumors above the cutoff, but <50%)”; the “Target coverage, over-expression category of source gene, TGCT” value is “C (>=5% of tumors above the cutoff, but <20%)”. Moreover, the “Target coverage, over-expression category of source gene, THYM” value was “B (>=20% of tumors above the cutoff, but <50%)”; the “Target coverage, over-expression category of source gene, UCS” value is recorded as “B (>=20% of tumors above the cutoff, but <50%)”; the “Target coverage, over-expression category of source gene, UCEC” value was “B (>=20% of tumors above the cutoff, but <50%)”.

For “210: peptide found in BUB1B (gene looked up) (IYAGVGEFSF; listed as Homo sapiens) [compound 210]”, under setting [1], the “Target coverage, over-expression category of source gene, TGCT (N = 156)” value is “A (>=50% of tumors above the cutoff)”.

For the substance “376: peptide found in RAD18 (gene looked up) (VYTPVASRQSL; listed as Homo sapiens) [compound 376]”, the “Target coverage, over-expression category of source gene, SARC” value was “C (>=5% of tumors above the cutoff, but <20%)”; the “Target coverage, over-expression category of source gene, SKCM” value is reported as “B (>=20% of tumors above the cutoff, but <50%)”; the “Target coverage, over-expression category of source gene, STAD” value is reported as “C (>=5% of tumors above the cutoff, but <20%)”; the “Target coverage, over-expression category of source gene, TGCT” value is listed as “B (>=20% of tumors above the cutoff, but <50%)”.

For “374: peptide found in PRKDC (gene looked up) (VFLPRVTEL; listed as Homo sapiens) [compound 374]”, the “Target coverage, over-expression category of source gene, SARC” value is “C (>=5% of tumors above the cutoff, but <20%)”; the “Target coverage, over-expression category of source gene, SKCM” value was “C (>=5% of tumors above the cutoff, but <20%)”; the “Target coverage, over-expression category of source gene, STAD” value was “B (>=20% of tumors above the cutoff, but <50%)”; the “Target coverage, over-expression category of source gene, TGCT” value is listed as “B (>=20% of tumors above the cutoff, but <50%)”. The “Target coverage, over-expression category of source gene, UCS” value is listed as “B (>=20% of tumors above the cutoff, but <50%)” and the “Target coverage, over-expression category of source gene, UVM” value is recorded as “C (>=5% of tumors above the cutoff, but <20%)”.

Regarding “174: peptide found in MMP13 (gene looked up) (VYEKNGYIYF; listed as Homo sapiens) [compound 174]”, under setting [1], the “Target coverage, over-expression category of source gene, STAD (N = 415)” value is recorded as “C (>=5% of tumors above the cutoff, but <20%)”; the “Target coverage, over-expression category of source gene, TGCT (N = 156)” value is recorded as “C (>=5% of tumors above the cutoff, but <20%)”; the “Target coverage, over-expression category of source gene, THYM (N = 120)” value was “C (>=5% of tumors above the cutoff, but <20%)”; the “Target coverage, over-expression category of source gene, THCA (N = 513)” value is reported as “C (>=5% of tumors above the cutoff, but <20%)”. Besides, under setting [1], the “Target coverage, over-expression category of source gene, UCS (N = 57)” value is reported as “C (>=5% of tumors above the cutoff, but <20%)”.

Take “360: peptide found in PSMA7 (gene looked up) (VFSPDGHLF; listed as Homo sapiens) [compound 360]”: the “Target coverage, over-expression category of source gene, SARC” value was “C (>=5% of tumors above the cutoff, but <20%)”; the “Target coverage, over-expression category of source gene, SKCM” value is “C (>=5% of tumors above the cutoff, but <20%)”; the “Target coverage, over-expression category of source gene, UCS” value was “B (>=20% of tumors above the cutoff, but <50%)”.
